Results are given in words; binding and its absence hold for the method and conditions named. Binding calls can cover weak binding; strength is not graded here.
Target: N-cadherin on the HuProt human proteome array (human) (UniProt P19022)
Test: peptide or protein array; EV-Cy3 and NT-Cy3 profiled on HuProt human proteome arrays (CDI Laboratories); both purified

Amino acid sequences for entries named in this document (tags omitted). A change or cut given only in a name is not applied to a line headed by its entry.
UniProt P19022: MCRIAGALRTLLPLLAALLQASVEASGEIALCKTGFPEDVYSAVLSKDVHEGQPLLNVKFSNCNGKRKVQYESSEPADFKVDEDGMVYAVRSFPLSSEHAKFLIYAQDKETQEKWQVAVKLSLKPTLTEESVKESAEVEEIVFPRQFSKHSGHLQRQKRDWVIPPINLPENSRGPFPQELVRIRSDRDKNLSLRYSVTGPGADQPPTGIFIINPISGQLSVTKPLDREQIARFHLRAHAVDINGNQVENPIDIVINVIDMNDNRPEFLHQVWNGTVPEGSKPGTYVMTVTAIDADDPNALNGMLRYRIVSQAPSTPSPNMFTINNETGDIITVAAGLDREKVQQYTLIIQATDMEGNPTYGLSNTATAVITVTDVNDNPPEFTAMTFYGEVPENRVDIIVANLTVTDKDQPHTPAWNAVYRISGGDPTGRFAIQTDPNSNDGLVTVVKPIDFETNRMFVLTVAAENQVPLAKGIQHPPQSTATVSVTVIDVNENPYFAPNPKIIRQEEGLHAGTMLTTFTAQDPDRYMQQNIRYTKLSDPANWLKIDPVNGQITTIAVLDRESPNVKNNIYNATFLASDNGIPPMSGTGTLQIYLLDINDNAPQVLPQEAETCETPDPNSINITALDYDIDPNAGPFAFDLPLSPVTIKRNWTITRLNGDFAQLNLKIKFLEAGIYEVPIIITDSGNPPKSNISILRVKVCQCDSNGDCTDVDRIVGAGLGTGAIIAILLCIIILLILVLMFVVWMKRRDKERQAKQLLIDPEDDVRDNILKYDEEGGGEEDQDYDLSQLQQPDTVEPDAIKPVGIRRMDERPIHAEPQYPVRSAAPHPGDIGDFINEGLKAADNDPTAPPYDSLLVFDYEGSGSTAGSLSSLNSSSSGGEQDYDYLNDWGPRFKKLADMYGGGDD

Question: How did the binding turn out when AWEFYFPGGGGSGGGGSGGGGSSSQPFWS (conjugated with cyanine 3 (position not given)) [cyanine 3-conjugated dual peptide EV (EV-Cy3)] was run?
Answer: Its binding is “binds”.

Reference: article PMC10080078, “Use of phage display biopanning as a tool to design CAR-T cells against glioma stem cells” (Frontiers in Oncology, 2023)
